# Measurements from the supplement of paper PMC10849652.
# By UniProt entry, the sequences of proteins in these tests, tags left out. Where a name states a change or a piece, a line headed by the entry shows the natural chain unless it says otherwise.
# UniProt Q9H6E5: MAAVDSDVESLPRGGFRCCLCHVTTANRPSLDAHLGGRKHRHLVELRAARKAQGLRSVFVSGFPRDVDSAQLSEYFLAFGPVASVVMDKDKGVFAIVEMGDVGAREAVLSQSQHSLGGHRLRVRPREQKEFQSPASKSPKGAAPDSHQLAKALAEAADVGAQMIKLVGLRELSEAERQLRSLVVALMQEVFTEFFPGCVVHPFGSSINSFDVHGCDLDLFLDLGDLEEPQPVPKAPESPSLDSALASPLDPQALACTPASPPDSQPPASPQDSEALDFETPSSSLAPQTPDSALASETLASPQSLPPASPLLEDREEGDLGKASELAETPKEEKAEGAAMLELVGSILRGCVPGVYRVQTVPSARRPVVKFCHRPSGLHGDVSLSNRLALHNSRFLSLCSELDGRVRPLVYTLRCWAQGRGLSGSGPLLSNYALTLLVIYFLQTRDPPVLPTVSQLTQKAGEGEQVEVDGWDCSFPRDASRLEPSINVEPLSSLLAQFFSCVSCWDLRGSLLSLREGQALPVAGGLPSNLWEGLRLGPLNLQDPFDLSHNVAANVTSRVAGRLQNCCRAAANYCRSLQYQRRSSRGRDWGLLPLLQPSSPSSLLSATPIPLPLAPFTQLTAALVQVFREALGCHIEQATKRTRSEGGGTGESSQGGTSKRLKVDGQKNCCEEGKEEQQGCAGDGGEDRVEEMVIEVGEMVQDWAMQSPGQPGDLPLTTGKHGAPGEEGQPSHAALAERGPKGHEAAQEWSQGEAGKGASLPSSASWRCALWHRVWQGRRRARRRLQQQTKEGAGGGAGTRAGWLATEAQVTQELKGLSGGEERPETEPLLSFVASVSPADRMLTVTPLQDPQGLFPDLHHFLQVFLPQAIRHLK
# UniProt Q7Z3V4: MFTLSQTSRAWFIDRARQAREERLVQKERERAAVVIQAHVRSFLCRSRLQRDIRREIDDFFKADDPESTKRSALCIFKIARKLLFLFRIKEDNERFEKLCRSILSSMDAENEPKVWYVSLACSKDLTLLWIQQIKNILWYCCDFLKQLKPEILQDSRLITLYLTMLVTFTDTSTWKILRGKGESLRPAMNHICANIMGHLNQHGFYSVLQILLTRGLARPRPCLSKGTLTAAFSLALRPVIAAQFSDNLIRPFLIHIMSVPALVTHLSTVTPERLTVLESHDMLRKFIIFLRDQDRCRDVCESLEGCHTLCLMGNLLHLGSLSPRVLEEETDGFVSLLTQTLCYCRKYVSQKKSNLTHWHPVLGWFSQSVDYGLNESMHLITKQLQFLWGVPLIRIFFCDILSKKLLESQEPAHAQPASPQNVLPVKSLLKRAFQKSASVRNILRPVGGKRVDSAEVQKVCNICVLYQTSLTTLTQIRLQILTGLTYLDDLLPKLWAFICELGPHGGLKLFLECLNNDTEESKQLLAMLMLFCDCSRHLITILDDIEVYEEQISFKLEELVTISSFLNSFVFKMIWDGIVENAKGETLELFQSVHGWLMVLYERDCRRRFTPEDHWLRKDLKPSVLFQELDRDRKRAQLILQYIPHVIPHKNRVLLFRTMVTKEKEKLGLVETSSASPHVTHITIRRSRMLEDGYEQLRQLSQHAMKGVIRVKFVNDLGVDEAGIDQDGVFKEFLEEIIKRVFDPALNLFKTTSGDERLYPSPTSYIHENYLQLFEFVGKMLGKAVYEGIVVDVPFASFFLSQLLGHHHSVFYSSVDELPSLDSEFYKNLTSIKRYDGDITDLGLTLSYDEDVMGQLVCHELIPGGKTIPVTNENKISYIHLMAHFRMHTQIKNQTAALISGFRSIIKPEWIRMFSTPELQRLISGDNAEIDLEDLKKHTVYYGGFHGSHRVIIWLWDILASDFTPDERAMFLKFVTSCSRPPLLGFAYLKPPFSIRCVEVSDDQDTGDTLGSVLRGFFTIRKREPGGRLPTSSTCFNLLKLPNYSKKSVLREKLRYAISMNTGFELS
# UBE2L5, A0A1B0GUS4, UniProt A0A1B0GUS4, whole entry, looked up: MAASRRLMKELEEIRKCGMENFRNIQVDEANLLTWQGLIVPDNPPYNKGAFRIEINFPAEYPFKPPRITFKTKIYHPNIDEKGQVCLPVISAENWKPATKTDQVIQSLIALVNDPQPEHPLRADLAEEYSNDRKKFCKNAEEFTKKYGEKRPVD
# UniProt Q9UJ04: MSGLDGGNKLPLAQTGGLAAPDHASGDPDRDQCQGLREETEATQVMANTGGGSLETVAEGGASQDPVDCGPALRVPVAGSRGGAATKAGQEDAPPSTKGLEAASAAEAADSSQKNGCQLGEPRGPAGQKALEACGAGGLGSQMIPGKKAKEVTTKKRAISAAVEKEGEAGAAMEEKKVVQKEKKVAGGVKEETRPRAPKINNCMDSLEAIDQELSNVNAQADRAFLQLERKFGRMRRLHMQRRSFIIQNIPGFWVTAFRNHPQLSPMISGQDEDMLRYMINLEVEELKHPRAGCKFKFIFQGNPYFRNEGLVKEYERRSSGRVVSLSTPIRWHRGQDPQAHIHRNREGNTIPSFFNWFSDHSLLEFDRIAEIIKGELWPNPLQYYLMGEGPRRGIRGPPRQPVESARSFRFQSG
# UniProt Q96FV3: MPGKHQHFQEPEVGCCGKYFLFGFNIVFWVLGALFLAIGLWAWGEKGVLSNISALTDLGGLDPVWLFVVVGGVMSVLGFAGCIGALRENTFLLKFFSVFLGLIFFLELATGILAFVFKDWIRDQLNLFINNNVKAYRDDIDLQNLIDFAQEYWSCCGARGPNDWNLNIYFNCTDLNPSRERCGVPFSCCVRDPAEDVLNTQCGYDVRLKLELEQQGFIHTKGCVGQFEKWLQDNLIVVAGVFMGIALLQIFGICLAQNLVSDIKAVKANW
# UniProt Q96AE7: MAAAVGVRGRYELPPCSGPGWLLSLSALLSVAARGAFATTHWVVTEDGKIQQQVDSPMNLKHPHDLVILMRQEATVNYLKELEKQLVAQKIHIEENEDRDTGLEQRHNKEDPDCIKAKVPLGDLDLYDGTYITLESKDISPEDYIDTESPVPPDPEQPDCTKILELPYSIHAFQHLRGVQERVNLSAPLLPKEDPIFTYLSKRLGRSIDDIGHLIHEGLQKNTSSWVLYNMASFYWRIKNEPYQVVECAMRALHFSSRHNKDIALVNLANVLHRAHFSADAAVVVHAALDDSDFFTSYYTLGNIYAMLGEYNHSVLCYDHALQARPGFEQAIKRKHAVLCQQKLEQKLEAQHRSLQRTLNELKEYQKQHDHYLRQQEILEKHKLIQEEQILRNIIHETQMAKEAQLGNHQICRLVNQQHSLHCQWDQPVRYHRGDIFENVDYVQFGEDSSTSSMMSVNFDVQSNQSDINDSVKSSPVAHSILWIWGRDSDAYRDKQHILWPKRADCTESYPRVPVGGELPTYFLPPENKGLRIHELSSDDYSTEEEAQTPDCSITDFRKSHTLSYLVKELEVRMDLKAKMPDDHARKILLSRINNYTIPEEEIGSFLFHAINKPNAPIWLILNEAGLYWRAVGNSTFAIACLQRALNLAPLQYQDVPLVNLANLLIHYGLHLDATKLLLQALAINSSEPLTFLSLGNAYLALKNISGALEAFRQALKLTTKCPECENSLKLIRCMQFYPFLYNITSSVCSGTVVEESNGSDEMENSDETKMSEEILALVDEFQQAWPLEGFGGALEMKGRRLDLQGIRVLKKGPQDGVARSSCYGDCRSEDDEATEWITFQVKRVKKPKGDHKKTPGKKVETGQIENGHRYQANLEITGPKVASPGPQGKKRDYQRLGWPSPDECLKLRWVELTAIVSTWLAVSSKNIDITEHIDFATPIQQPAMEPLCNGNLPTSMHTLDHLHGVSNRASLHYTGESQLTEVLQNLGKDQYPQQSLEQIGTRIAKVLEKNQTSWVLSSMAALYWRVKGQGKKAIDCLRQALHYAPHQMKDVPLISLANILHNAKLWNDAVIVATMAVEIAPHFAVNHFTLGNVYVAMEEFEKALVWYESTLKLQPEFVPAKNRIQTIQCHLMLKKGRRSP
# UniProt Q9H0U9: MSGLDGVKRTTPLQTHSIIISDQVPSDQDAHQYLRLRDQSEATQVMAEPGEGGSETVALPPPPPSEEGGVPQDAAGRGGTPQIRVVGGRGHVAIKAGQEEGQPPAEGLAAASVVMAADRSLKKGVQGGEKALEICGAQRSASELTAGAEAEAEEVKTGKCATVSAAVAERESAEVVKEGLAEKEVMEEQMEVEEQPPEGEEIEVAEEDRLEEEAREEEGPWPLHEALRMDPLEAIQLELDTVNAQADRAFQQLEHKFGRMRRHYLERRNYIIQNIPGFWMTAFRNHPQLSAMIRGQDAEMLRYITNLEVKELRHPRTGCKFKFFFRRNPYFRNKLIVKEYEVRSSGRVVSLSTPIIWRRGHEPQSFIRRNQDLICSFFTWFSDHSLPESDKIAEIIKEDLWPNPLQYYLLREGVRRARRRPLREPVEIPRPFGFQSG
# UniProt Q8WUA8: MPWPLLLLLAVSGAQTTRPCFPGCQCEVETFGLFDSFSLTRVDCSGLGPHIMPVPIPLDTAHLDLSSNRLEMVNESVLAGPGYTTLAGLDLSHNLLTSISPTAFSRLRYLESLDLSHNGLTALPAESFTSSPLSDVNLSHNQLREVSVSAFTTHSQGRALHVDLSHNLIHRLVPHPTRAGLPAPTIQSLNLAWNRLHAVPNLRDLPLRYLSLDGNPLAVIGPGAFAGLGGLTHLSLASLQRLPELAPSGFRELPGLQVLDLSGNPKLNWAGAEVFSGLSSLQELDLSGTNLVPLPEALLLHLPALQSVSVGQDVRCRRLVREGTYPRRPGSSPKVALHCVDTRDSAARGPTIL
# UniProt Q3B726, whole entry, looked up: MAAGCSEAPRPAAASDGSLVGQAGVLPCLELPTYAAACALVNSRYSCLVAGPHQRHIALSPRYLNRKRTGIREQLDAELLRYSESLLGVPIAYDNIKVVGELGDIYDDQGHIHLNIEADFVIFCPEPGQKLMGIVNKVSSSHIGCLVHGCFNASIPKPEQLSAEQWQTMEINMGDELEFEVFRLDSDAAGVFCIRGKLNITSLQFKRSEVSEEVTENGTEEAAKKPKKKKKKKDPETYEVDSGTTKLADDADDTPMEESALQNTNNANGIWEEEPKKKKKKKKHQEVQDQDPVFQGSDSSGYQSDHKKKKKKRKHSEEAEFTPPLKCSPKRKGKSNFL
# UniProt Q8NBP0: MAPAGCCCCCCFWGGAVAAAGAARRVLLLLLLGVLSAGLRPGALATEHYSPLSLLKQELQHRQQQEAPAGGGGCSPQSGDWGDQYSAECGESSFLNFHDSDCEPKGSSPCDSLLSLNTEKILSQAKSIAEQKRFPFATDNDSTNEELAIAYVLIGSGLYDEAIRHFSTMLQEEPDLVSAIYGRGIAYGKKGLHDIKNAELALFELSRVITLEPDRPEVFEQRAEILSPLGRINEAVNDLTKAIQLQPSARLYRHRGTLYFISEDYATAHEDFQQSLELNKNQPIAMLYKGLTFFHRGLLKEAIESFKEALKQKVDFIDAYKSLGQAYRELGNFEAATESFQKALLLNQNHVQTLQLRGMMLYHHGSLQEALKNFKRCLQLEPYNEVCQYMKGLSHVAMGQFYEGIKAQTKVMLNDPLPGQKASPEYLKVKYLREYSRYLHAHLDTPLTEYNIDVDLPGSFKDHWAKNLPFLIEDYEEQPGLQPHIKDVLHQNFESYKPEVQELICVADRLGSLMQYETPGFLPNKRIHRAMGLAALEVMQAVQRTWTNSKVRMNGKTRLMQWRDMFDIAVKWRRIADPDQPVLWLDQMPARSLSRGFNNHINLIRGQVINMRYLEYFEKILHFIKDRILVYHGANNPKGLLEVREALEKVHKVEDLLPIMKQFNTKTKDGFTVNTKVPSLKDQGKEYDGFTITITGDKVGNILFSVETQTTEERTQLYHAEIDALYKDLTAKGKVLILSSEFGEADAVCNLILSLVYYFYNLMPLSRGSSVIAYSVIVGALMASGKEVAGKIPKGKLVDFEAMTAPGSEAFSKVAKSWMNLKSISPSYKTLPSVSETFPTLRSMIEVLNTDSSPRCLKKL
# UniProt Q3ZCM7, whole entry, looked up: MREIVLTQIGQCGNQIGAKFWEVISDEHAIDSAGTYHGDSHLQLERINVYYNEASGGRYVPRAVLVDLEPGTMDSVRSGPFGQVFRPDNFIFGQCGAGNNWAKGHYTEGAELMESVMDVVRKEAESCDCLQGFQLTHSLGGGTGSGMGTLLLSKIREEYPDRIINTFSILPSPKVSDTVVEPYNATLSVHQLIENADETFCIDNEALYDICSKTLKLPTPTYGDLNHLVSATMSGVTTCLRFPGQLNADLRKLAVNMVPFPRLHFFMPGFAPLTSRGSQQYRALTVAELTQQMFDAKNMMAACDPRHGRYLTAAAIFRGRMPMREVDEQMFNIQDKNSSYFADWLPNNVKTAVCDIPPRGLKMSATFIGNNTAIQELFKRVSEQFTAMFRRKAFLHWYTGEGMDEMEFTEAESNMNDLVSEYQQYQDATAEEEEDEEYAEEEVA
# UniProt Q5BVD1: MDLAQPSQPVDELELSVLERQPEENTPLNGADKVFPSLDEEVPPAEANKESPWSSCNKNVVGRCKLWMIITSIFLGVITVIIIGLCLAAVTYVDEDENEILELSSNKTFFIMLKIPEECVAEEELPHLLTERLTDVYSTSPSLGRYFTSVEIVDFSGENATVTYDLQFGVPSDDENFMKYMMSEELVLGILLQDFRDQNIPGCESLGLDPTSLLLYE
# Some of the results follow.
# Tests used:
# Experiment in all cases: log2 fold change, soluble protein after heating vs DMSO (PISA); higher = thermal stabilisation; K562 cells, 10 uM, 30 min; active = over 0.2 and 3.5 SD of the protein, either way, in both replicates (recomputed)
# volasertib = compound: CC[C@@H]1C(=O)N(C)c2cnc(Nc3ccc(C(=O)N[C@H]4CC[C@H](N5CCN(CC6CC6)CC5)CC4)cc3OC)nc2N1C(C)C [volasertib]
# How it was run: (§1)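 K562 cells at 2×10^6 cells/mL were treated for 30 min with 10 μM compound, and aliquots were heated for 3 min over 48°C-58°C before pooling. Extraction used PBS with 0.5% NP-40 at 4°C, and soluble protein was the supernatant after 21,000xg for 90 min, measured by TMTpro 16plex LC-MS/MS with channel sums equalised. Thermal stability values, relative to control samples and from duplicates, are log2 fold changes.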
# [1] = compound: CC[C@H](C)N1C=C(C2=C(C=C(C=C21)C3=CN=C(C=C3)N4CCNCC4)C(=O)NCC5=C(C=C(NC5=O)C)C)C
# How it was run: as §1
# epoxomicin = compound: CC[C@H](C)[C@@H](C(=O)N[C@@H]([C@@H](C)O)C(=O)N[C@@H](CC(C)C)C(=O)[C@]1(CO1)C)NC(=O)[C@H]([C@@H](C)CC)N(C)C(=O)C [epoxomicin]
# How it was run: as §1
# [2] = compound: CCn1cc(-c2ccnc3[nH]c(-c4cccc(CN(C)C)c4)cc23)c(-c2ccc(NC(=O)N(C)C)cc2)n1
# How it was run: as §1
# [3] = compound: CN(C)CC(=O)Nc1ccc2[nH]c(=O)c3ccccc3c2c1
# How it was run: as §1
# [4] = compound: CN1C2=C(C3=C1C(=O)N(N=C3)CC4=CC(=CC=C4)N)SC(=C2)S(=O)C
# How it was run: as §1
# [5] = compound: CN1CCC(CNc2ccc3ncc(-c4cccc(OC(F)(F)F)c4)n3n2)CC1
# How it was run: as §1
# saracatinib = compound: CN1CCN(CCOc2cc(OC3CCOCC3)c3c(Nc4c(Cl)ccc5c4OCO5)ncnc3c2)CC1 [saracatinib]
# How it was run: as §1
# sotrastaurin = compound: CN1CCN(c2nc(C3=C(c4c[nH]c5ccccc45)C(=O)NC3=O)c3ccccc3n2)CC1 [sotrastaurin]
# How it was run: as §1
# Tubastatin A = compound: CN1CCc2c(c3ccccc3n2Cc2ccc(C(=O)NO)cc2)C1 [Tubastatin A]
# How it was run: as §1
# [6] = compound: CNC(=O)C1=CC=CC=C1NC2=NC(=NC=C2Cl)NC3=C(C=C(C=C3)N4CCOCC4)OC
# How it was run: as §1
# defactinib = compound: CNC(=O)c1ccc(Nc2ncc(C(F)(F)F)c(NCc3nccnc3N(C)S(C)(=O)=O)n2)cc1 [defactinib]
# How it was run: as §1
# [7] = compound: CNc1nc(-c2ccc3c(N)n[nH]c3c2)cc(N2C[C@@H](C(=O)NC3CCCCC3)CC[C@H]2C)n1
# How it was run: as §1
# [8] = compound: COC(=O)[C@H](CCSC)NC(=O)C1=C(C=C(C=C1)NC[C@H](CS)N)C2=CC=CC=C2
# How it was run: as §1
# [9] = compound: CCn1c(C(=O)N(C2CC2)C2CC2)cc2c3c(ncn3C)c(Nc3cc(C)n(C)n3)nc21
# How it was run: as §1
# rosiglitazone = compound: CN(CCOC1=CC=C(C=C1)C[C@H]2C(=O)NC(=O)S2)C3=CC=CC=N3 (racemic) [rosiglitazone]
# How it was run: as §1
# [10] = compound: CC[C@@H]1C(=O)N(C)c2cnc(Nc3ccc(C(=O)NC4CCN(C)CC4)cc3OC)nc2N1C1CCCC1
# How it was run: as §1
# rucaparib = compound: CNCc1ccc(-c2[nH]c3cc(F)cc4c3c2CCNC4=O)cc1 [rucaparib]
# How it was run: as §1
# encorafenib = compound: COC(=O)N[C@@H](C)CNc1nccc(-c2cn(C(C)C)nc2-c2cc(Cl)cc(NS(C)(=O)=O)c2F)n1 [encorafenib]
# How it was run: as §1
# alvocidib = compound: CN1CC[C@H](c2c(O)cc(O)c3c(=O)cc(-c4ccccc4Cl)oc23)[C@H](O)C1 [alvocidib]
# How it was run: as §1
target,measurement,setting,value
TSPAN13 (UniProt O95857),log2 fold change,volasertib,inactive: 0.098
same,log2 fold change,[1],inactive: -0.083
same,log2 fold change,epoxomicin,inactive: -0.148
same,log2 fold change,[2],inactive: -0.098
same,log2 fold change,[3],active: 0.512
same,log2 fold change,[4],inactive: -0.036
same,log2 fold change,[5],inactive: -0.003
same,log2 fold change,saracatinib,inactive: -0.055
same,log2 fold change,sotrastaurin,inactive: 0.044
same,log2 fold change,Tubastatin A,inactive: -0.11
same,log2 fold change,[6],inactive: 0.054
same,log2 fold change,defactinib,inactive: -0.104
same,log2 fold change,[7],inactive: -0.029
same,log2 fold change,[8],inactive: -0.291
UBE2E1 (UniProt P51965),log2 fold change,volasertib,inactive: -0.214
same,log2 fold change,[1],inactive: 0.168
same,log2 fold change,epoxomicin,inactive: 0.04
same,log2 fold change,[9],inactive: -0.069
same,log2 fold change,[2],inactive: -0.14
same,log2 fold change,[3],inactive: 0.16
same,log2 fold change,rosiglitazone,inactive: 0.086
same,log2 fold change,[4],inactive: -0.007
same,log2 fold change,[5],inactive: -0.163
same,log2 fold change,saracatinib,inactive: 0.161
same,log2 fold change,sotrastaurin,inactive: -0.13
same,log2 fold change,Tubastatin A,inactive: 0.03
same,log2 fold change,[6],inactive: 0.261
same,log2 fold change,defactinib,inactive: 0.11
same,log2 fold change,[7],inactive: -0.05
same,log2 fold change,[8],inactive: -0.233
TUT1 (UniProt Q9H6E5),log2 fold change,rosiglitazone,inactive: 0.011
TTR (UniProt P02766),log2 fold change,[9],inactive: 0.113
same,log2 fold change,[6],inactive: 0.118
UBE3B (UniProt Q7Z3V4),log2 fold change,volasertib,active: -0.554
same,log2 fold change,[1],inactive: 0.088
same,log2 fold change,epoxomicin,inactive: -0.023
same,log2 fold change,[4],inactive: -0.007
same,log2 fold change,saracatinib,inactive: -0.028
same,log2 fold change,sotrastaurin,inactive: 0.005
same,log2 fold change,Tubastatin A,inactive: 0.128
same,log2 fold change,[7],inactive: -0.032
TTC5 (UniProt Q8N0Z6),log2 fold change,[10],inactive: -0.057
same,log2 fold change,[4],inactive: 0.282
same,log2 fold change,saracatinib,inactive: -0.235
same,log2 fold change,sotrastaurin,inactive: 0
same,log2 fold change,rucaparib,inactive: 0.158
same,log2 fold change,[7],inactive: 0.177
same,log2 fold change,encorafenib,inactive: 0.017
"UBE2L5, A0A1B0GUS4",log2 fold change,[10],inactive: 0.065
same,log2 fold change,[9],inactive: 0.14
same,log2 fold change,[3],inactive: -0.049
same,log2 fold change,alvocidib,inactive: 0.126
same,log2 fold change,Tubastatin A,inactive: 0.076
same,log2 fold change,[6],inactive: -0.019
same,log2 fold change,defactinib,inactive: -0.085
same,log2 fold change,rucaparib,inactive: 0.088
same,log2 fold change,encorafenib,inactive: 0.068
same,log2 fold change,[8],inactive: -0.135
TSPYL4 (UniProt Q9UJ04),log2 fold change,[3],inactive: 0.123
same,log2 fold change,defactinib,inactive: -0.12
same,log2 fold change,[8],inactive: -0.01
TSPAN17 isoform 4 (UniProt Q96FV3),log2 fold change,epoxomicin,inactive: -0.07
same,log2 fold change,[9],inactive: 0.071
same,log2 fold change,sotrastaurin,inactive: 0.125
same,log2 fold change,[6],inactive: -0.176
TTC26,log2 fold change,[3],inactive: -0.088
same,log2 fold change,Tubastatin A,inactive: -0.033
same,log2 fold change,defactinib,inactive: 0.265
same,log2 fold change,[8],inactive: 0.144
TTC37 (UniProt Q6PGP7),log2 fold change,[10],inactive: 0.041
same,log2 fold change,epoxomicin,inactive: -0.532
same,log2 fold change,[3],inactive: 0.028
same,log2 fold change,rosiglitazone,inactive: 0
same,log2 fold change,defactinib,inactive: -0.08
same,log2 fold change,rucaparib,inactive: 0.116
same,log2 fold change,encorafenib,inactive: -0.132
same,log2 fold change,[8],inactive: 0.024
U2AF1L5 (UniProt P0DN76),log2 fold change,[10],inactive: -0.289
same,log2 fold change,[1],inactive: 0.045
same,log2 fold change,[3],inactive: 0.138
same,log2 fold change,[4],inactive: 0.112
same,log2 fold change,saracatinib,inactive: -0.013
same,log2 fold change,Tubastatin A,inactive: 0.072
same,log2 fold change,[6],inactive: 0.084
same,log2 fold change,defactinib,inactive: -0.409
same,log2 fold change,rucaparib,inactive: 0.236
same,log2 fold change,[7],inactive: -0.023
same,log2 fold change,encorafenib,inactive: 0.23
same,log2 fold change,[8],inactive: 0.107
TTC21B (UniProt Q7Z4L5),log2 fold change,volasertib,inactive: 0.149
same,log2 fold change,[4],inactive: 0.059
same,log2 fold change,saracatinib,inactive: 0.004
same,log2 fold change,Tubastatin A,inactive: 0.121
same,log2 fold change,[7],inactive: -0.074
TTC17 isoform 2 (UniProt Q96AE7),log2 fold change,volasertib,inactive: 0.185
same,log2 fold change,[9],inactive: -0.06
same,log2 fold change,[2],inactive: -0.06
same,log2 fold change,[5],inactive: 0.042
same,log2 fold change,[6],inactive: -0.422
TSPYL1 (UniProt Q9H0U9),log2 fold change,volasertib,inactive: -0.033
same,log2 fold change,[1],inactive: 0.001
same,log2 fold change,[9],inactive: -0.074
same,log2 fold change,alvocidib,inactive: -0.078
same,log2 fold change,[6],inactive: 0.122
TTC14 (UniProt Q96N46),log2 fold change,[10],inactive: 0.052
same,log2 fold change,[9],inactive: -0.08
same,log2 fold change,rosiglitazone,inactive: -0.093
same,log2 fold change,sotrastaurin,inactive: -0.114
same,log2 fold change,alvocidib,inactive: 0.038
same,log2 fold change,Tubastatin A,inactive: 0.052
same,log2 fold change,[6],inactive: -0.232
same,log2 fold change,rucaparib,inactive: -0.035
same,log2 fold change,encorafenib,inactive: 0.051
TSPAN4 (UniProt O14817),log2 fold change,[10],inactive: 0.288
same,log2 fold change,[9],inactive: -0.013
same,log2 fold change,rosiglitazone,inactive: -0.009
same,log2 fold change,Tubastatin A,inactive: -0.047
same,log2 fold change,[6],inactive: -0.207
same,log2 fold change,rucaparib,inactive: -0.234
same,log2 fold change,encorafenib,inactive: 0.081
TSKU (UniProt Q8WUA8),log2 fold change,volasertib,inactive: 0.043
same,log2 fold change,[9],inactive: -0.103
same,log2 fold change,[3],inactive: -0.281
same,log2 fold change,alvocidib,inactive: 0.024
same,log2 fold change,Tubastatin A,inactive: 0.187
same,log2 fold change,[6],inactive: 0.083
same,log2 fold change,defactinib,inactive: -0.058
same,log2 fold change,[8],inactive: 0.039
TWISTNB (UniProt Q3B726),log2 fold change,volasertib,inactive: 0.027
same,log2 fold change,epoxomicin,inactive: 0.114
same,log2 fold change,[9],inactive: 0.009
same,log2 fold change,[2],inactive: -0.085
same,log2 fold change,[3],inactive: 0.048
same,log2 fold change,rosiglitazone,inactive: 0.074
same,log2 fold change,[4],inactive: 0.081
same,log2 fold change,[5],inactive: 0.238
same,log2 fold change,saracatinib,inactive: -0.08
same,log2 fold change,sotrastaurin,inactive: -0.134
same,log2 fold change,alvocidib,inactive: 0.006
same,log2 fold change,Tubastatin A,inactive: 0.182
same,log2 fold change,[6],inactive: -0.045
same,log2 fold change,defactinib,inactive: -0.105
same,log2 fold change,[7],inactive: -0.107
same,log2 fold change,[8],inactive: 0.001
TTC13 (UniProt Q8NBP0),log2 fold change,[10],inactive: -0.028
same,log2 fold change,[9],inactive: -0.128
same,log2 fold change,[2],inactive: 0.073
same,log2 fold change,[3],inactive: -0.044
same,log2 fold change,[4],inactive: 0.107
same,log2 fold change,[5],inactive: 0.009
same,log2 fold change,saracatinib,inactive: -0.237
same,log2 fold change,sotrastaurin,inactive: 0.086
same,log2 fold change,alvocidib,inactive: 0.119
same,log2 fold change,Tubastatin A,inactive: 0.015
same,log2 fold change,[6],inactive: -0.035
same,log2 fold change,defactinib,inactive: -0.147
same,log2 fold change,rucaparib,inactive: 0.095
same,log2 fold change,[7],inactive: 0.042
same,log2 fold change,encorafenib,inactive: -0.142
same,log2 fold change,[8],inactive: 0.269
TUBB8 (UniProt Q3ZCM7),log2 fold change,[1],inactive: 0.082
same,log2 fold change,[9],inactive: -0.097
same,log2 fold change,[4],inactive: -0.177
same,log2 fold change,saracatinib,inactive: 0.003
same,log2 fold change,sotrastaurin,inactive: 0.036
same,log2 fold change,[6],inactive: 0.149
same,log2 fold change,[7],inactive: 0.019
TUT7 (UniProt Q5VYS8),log2 fold change,[10],inactive: 0.048
same,log2 fold change,[1],inactive: 0.025
same,log2 fold change,epoxomicin,inactive: -0.156
same,log2 fold change,[2],inactive: -0.148
same,log2 fold change,[5],inactive: 0.43
same,log2 fold change,sotrastaurin,inactive: 0.044
same,log2 fold change,alvocidib,inactive: 0.15
same,log2 fold change,Tubastatin A,inactive: 0.071
same,log2 fold change,rucaparib,inactive: 0.445
same,log2 fold change,encorafenib,inactive: 0.149
TTMP isoform 3 (UniProt Q5BVD1),log2 fold change,[1],inactive: -0.233
same,log2 fold change,epoxomicin,inactive: -0.113
same,log2 fold change,[9],inactive: -0.119
same,log2 fold change,[2],inactive: -0.146
same,log2 fold change,rosiglitazone,inactive: 0.058
same,log2 fold change,[4],inactive: -0.122
same,log2 fold change,[5],inactive: -0.053
same,log2 fold change,saracatinib,inactive: -0.118
same,log2 fold change,sotrastaurin,inactive: 0.027
same,log2 fold change,alvocidib,inactive: -0.002
same,log2 fold change,Tubastatin A,inactive: 0.334
same,log2 fold change,[6],inactive: -0.134
same,log2 fold change,[7],inactive: 0.008

# A stretch from the list above, as a working copy:
target,measurement,setting,value
TTMP isoform 3 (UniProt Q5BVD1),log2 fold change,[1],inactive: -0.233
same,log2 fold change,epoxomicin,inactive: -0.113
same,log2 fold change,[9],inactive: -0.119
same,log2 fold change,[2],inactive: -0.146
same,log2 fold change,rosiglitazone,inactive: 0.058
same,log2 fold change,[4],inactive: -0.122

# Some of the entries above in another layout.
target	measurement	setting	value
TSPYL1 (UniProt Q9H0U9)	log2 fold change	volasertib	inactive: -0.033
same	log2 fold change	[1]	inactive: 0.001
same	log2 fold change	[9]	inactive: -0.074

# Given with bars between the fields: entries from further up
target | measurement | setting | value
UBE2L5, A0A1B0GUS4 | log2 fold change | alvocidib | inactive: 0.126
same | log2 fold change | Tubastatin A | inactive: 0.076
same | log2 fold change | [6] | inactive: -0.019
same | log2 fold change | defactinib | inactive: -0.085
same | log2 fold change | rucaparib | inactive: 0.088
